Experimental data as given in PubChem BioAssay AID1347076 (National Center for Advancing Translational Sciences (NCATS), 2019).
Screen size: about 400,000 compounds; about 13,000 (3.2%) were called active. Inconclusive results, whose numbers are uncertain, are shown with a selection of clear calls. Calls follow the shape of the dose curve; as a rule, active = well fitted cell-killing curve with a large enough effect; inconclusive = small, poorly fitted or top-dose-only effect, or effect the other way; inactive = flat fitted curve, though single readings scatter. Potencies of inconclusive entries are doubtful fits and often do not repeat.

test: qHTS assay for MDR1-selective chemotherapeutics: Primary screen using the drug-selected MDR subline cells KB-V1; conditions: KB-V1 MDR cells viability, CellTiter-Glo, 72 h; activity change, negative = cytotoxicity: at 46.1 µM (top of the series); also: nearly all actives have a fitted effect of over 60% in size
Summary of the method: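 KB-V1, DMEM (no phenol red) + 10% FBS; cpd pin-transferred, titration series; 72 h, 37 degrees C; CellTiter-Glo, luminescence. Data normalized, curve-fit.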
% is scaled to controls: 0 for no effect and ±100 for the full control effect; potency is read from the fitted curve at half-maximal effect.

Row | SMILES | Potency | activity change, negative = cytotoxicity
1 | CCCCC(=O)Nc1ccc(C(=O)N(CC)c2ccccc2C)cc1 | active: 14.6 µM | –
2 | Cc1cc(OC(=O)c2cccc(Br)c2)c([N+](=O)[O-])c(=O)[nH]1 | inconclusive: 29.1 µM [rising, single point] | –
3 | COc1cc(C)ccc1S(=O)(=O)NC(=O)C1(C)CCN1C(=O)C1(c2ccc(Cl)cc2)CCC1 (centres undefined) | – | inactive: -12.7%
4 | Cc1ccc(CNC(=O)C(=O)NCCC2CCCCN2S(=O)(=O)c2ccc(C)cc2)cc1 (centres undefined) | active: 3.66 µM | –
5 | COc1ccc(-c2cc(=O)oc3cc4occ(C)c4cc23)cc1 | inconclusive: 29.1 µM [cytotoxic, partial curve, poor fit] | –
6 | O=C(COc1ccc(/C=N/NS(=O)(=O)c2ccccc2)cc1)Nc1ccc(F)cc1 | inconclusive: 23.1 µM [cytotoxic, single point] | –
7 | CS(=O)(=O)n1nc(OC(=O)c2cc(Br)ccc2Cl)cc1N | – | inactive: 6.7%
8 | COc1ccc(/C=C/C(=O)c2ccccc2)cc1Cn1nnc2ccccc21 | active: 20.6 µM | –
9 | O=C1CCCN1CCCNS(=O)(=O)c1ccc(Cl)c(C(=O)N2CCOCC2)c1 | inconclusive: 3.66 µM [rising, partial curve, poor fit] | –
10 | Cc1ccc(CN2[C@H]3CCCC[C@@H]3OCCS2(=O)=O)cc1 | inconclusive: 23.1 µM [cytotoxic, partial curve, poor fit] | –
11 | COc1ccc(-n2c(=O)c3c4c(sc3n(Cc3cc(C)ccc3C)c2=O)CN(C(C)=O)CC4)c(OC)c1 | – | inactive: -11.2%
12 | C=CCNC(=S)N(C1CCCCC1)C1CCCCC1 | inconclusive: 16.4 µM [cytotoxic, single point] | –
13 | OC(COC(c1ccccc1)c1ccccc1)CN1CCc2ccccc2C1 (centres undefined) | inconclusive: 29.1 µM [cytotoxic, single point] | –
14 | CCCN1C(=O)/C(=C/c2c(NCCCOC(C)C)nc3c(C)cccn3c2=O)SC1=S | – | inactive: 4.32%
15 | CCN(CC)CCCNc1nc2cc(OC)c(OC)cc2c2nc(-c3cccnc3)nn12 | inconclusive: 2.59 µM [cytotoxic, partial curve] | –
16 | CN(C)S(=O)(=O)N1CCN(CC(O)COc2ccc(-c3ccccc3)cc2)CC1 (centres undefined) | – | inactive: -7.13%
17 | Cc1ccccc1C1(CCN2CCCCC2)CCOC(C)(C)C1 (centres undefined) | inconclusive: 1.3 µM [rising, full curve, poor fit] | –
18 | CC(C)N1C(=O)S/C(=C\c2ccc(-c3ccc(Cl)c(C(=O)O)c3)o2)C1=O | – | inactive: 14.1%
19 | Cc1ccc(CNc2nc3ccccc3n3c(C)nnc23)cc1 | inconclusive: 14.6 µM [rising, partial curve, poor fit] | –
20 | COc1cc(N/C(N)=N/c2nc(C)cc(C)n2)cc(OC)c1 | inconclusive: 29.1 µM [cytotoxic, single point] | –
21 | CCc1ccc2c(c1)NC(=O)C2(C)Cc1ccccc1C#N (centres undefined) | inconclusive: 29.1 µM [cytotoxic, single point] | –
22 | Cc1ccc(SC2CCN(C(=O)C3CCC(=O)N(C4CC4)C3)CC2)cc1 (centres undefined) | inconclusive: 20.6 µM [cytotoxic, partial curve, poor fit] | –
23 | COc1ccc(OC)c(C2C(C#N)=C(N)Oc3cc(N)ccc32)c1 (centres undefined) | inconclusive: 29.1 µM [cytotoxic, single point] | –

Row | SMILES | Potency | activity change, negative = cytotoxicity
24 | CNS(=O)(=O)c1cccc(C(=O)NNC(=O)CN(C)S(=O)(=O)c2ccc(Cl)cc2)c1 | inconclusive: 2.06 µM [rising, full curve] | –
25 | CCOc1ccc(C(C)C)cc1S(=O)(=O)N1CCN(C(=O)c2ccco2)CC1 | inconclusive: 29.1 µM [rising, single point] | –
26 | C[C@H](CO)N1C[C@H](C)[C@@H](CN(C)S(=O)(=O)c2cn(C)cn2)Oc2c(NS(=O)(=O)c3ccccc3)cccc2C1=O | inconclusive: 5.17 µM [rising, partial curve] | –
27 | O=C(NNc1cccc(Cl)n1)C1CC1 | inconclusive: 29.1 µM [rising, single point] | –
28 | N#Cc1c(N2CCOCC2)nc(N2CCCCC2)c2c1CCN(C1CCCCC1)C2 | inconclusive: 16.4 µM [cytotoxic, partial curve] | –
29 | O=C(Oc1ccccc1/C=C\C(=O)c1cc2ccccc2o1)c1cccc(F)c1 | inconclusive: 32.6 µM [cytotoxic, single point] | –
30 | CS(=O)(=O)c1nc(S(=O)(=O)c2ccc(Cl)cc2)c(NCCCN2CCOCC2)s1 | inconclusive: 6.51 µM [cytotoxic, partial curve] | –
31 | CCCCC/C=N/NC(=O)c1[nH]c2ccc([N+](=O)[O-])cc2c1C | – | inactive: 1.32%
32 | Cc1onc(-c2ccccc2)c1-c1ccc(S(N)(=O)=O)cc1 | inconclusive: 23.1 µM [cytotoxic, single point] | –
33 | O=C(CCCCCNc1nc(=S)[nH]c2ccccc12)NCCC1=CCCCC1 | inconclusive: 23.1 µM [cytotoxic, single point] | –
34 | COc1ccc(CC(=O)NC(C)c2nnc(SCC(=O)c3ccc(Br)cc3)n2C)cc1 (centres undefined) | inconclusive: 9.2 µM [cytotoxic, partial curve] | –
35 | COc1cc(/C=C/C(=O)OCC(=O)NCc2ccc(F)cc2)ccc1O | active: 16.4 µM | –
36 | CN1CCN(c2ccccc2NC(=O)c2ccc([N+](=O)[O-])cc2Cl)CC1 | – | inactive: 7.68%
37 | COc1cccc(NC(=O)CSc2nc3n[nH]c(C)c3c(=N)n2-c2cccc(OC)c2)c1 | – | inactive: -12.1%
38 | NC(=O)c1nn(-c2ccccc2)nc1NC(=O)Cn1nnc(-c2ccccc2)n1 | – | inactive: 8.4%
39 | C/C(=N\NC(=O)C1COc2ccccc2O1)c1ccccn1 (centres undefined) | inconclusive: 2.06 µM [cytotoxic, full curve, poor fit] | –
40 | COc1cccc(CC(=O)OCc2csc(CC(=O)Nc3ccccc3C)n2)c1 | – | inactive: -0.759%
41 | COc1ccc(C(C(=O)NC2CCCC2)N(C(=O)c2snc(-c3ccc(F)cc3)c2N)c2ccc(OC)cc2)cc1 (centres undefined) | – | inactive: -26.6%
42 | NC(=S)NN=Cc1ccc(OC(=O)COc2cc(Cl)c(Cl)cc2Cl)cn1 | inconclusive: 29.1 µM [cytotoxic, partial curve, poor fit] | –
43 | Cc1ccc(S(=O)(=O)NC(=O)C2(C)CCN2C(=O)COc2ccc(Cl)cc2)nc1 (centres undefined) | – | inactive: -3.16%
44 | CCOC(=O)c1nc(C)sc1-c1ccnn1S(=O)(=O)c1cccc(Cl)c1 | – | inactive: -26%
45 | C=CCn1c(C)cc(C(=O)CSc2nc3ccccc3o2)c1C | active: 14.6 µM | –
46 | COc1ccc(N2CCN(C(=O)c3oc4ccccc4c3NC(=O)Cc3cccc(OC)c3)CC2)cc1 | inconclusive: 2.06 µM [cytotoxic, full curve, poor fit] | –

Row | SMILES | Potency | activity change, negative = cytotoxicity
47 | CCC(C(=O)NCC1CCCO1)n1nc(C)c2sc3ccccc3c2c1=O (centres undefined) | – | inactive: -9.05%
48 | CC(=O)N1CCCc2cc(S(=O)(=O)N(C)CC(=O)Nc3ccc(C)cc3C)ccc21 | inconclusive: 18.4 µM [cytotoxic, single point] | –
49 | O=C1CCC(c2ccccc2)N1c1ccccc1 (centres undefined) | – | inactive: -24.9%
50 | O=C(N=C1SC2CS(=O)(=O)CC2N1c1ccc(F)cc1F)C1CC1 (centres undefined) | inconclusive: 8.2 µM [rising, partial curve, poor fit] | –
51 | CCN1C/C(=C\c2cccc([N+](=O)[O-])c2)C(=O)/C(=C/c2cccc([N+](=O)[O-])c2)C1 | inconclusive: 2.06 µM [cytotoxic, partial curve, poor fit] | –
52 | Cc1cc(C(=O)OCC(=O)Nc2cc(C(F)(F)F)ccc2N2CCOCC2)c(C)o1 | inconclusive: 18.4 µM [cytotoxic, single point] | –
53 | CC(Cl)C(=O)Nc1cc(C(F)(F)F)ccc1N1CCOCC1 (centres undefined) | – | inactive: 5.23%
54 | O=S(=O)(c1ccccc1)c1nc(Nc2cccc(O)c2)sc1Cl | inconclusive: 29.1 µM [cytotoxic, single point] | –
55 | CSC(=NC#N)N1CCN(c2ccc([N+](=O)[O-])cc2)CC1 | – | inactive: -0.0237%
56 | Cc1c(C#N)c2n(c1C)CCCC(=O)N2 | – | inactive: 0.576%
57 | Cc1cccc(N2CCN(C(=O)n3ccnc3)CC2)c1C | inconclusive: 29.1 µM [cytotoxic, single point] | –
58 | O=C(Nc1cccn(Cc2ccccc2Cl)c1=O)NC1CCCCC1 | – | inactive: -3.85%
59 | c1coc(-c2cc(C3CCNCC3)[nH]n2)c1 | – | inactive: 3.43%
60 | CN(c1ccccc1)S(=O)(=O)c1cccc(NC(=O)CN2CCc3ccccc3C2)c1 | inconclusive: 14.6 µM [cytotoxic, partial curve] | –
61 | CC(C)CCn1nc(C(=O)OCC(=O)NC(C)c2ccccc2)c2ccccc2c1=O (centres undefined) | – | inactive: 10.7%
62 | O=S(=O)(c1ccccc1)N1CCN=C1SCc1ccccc1 | inconclusive: 29.1 µM [cytotoxic, single point] | –
63 | COc1ccc(C(=O)Nc2nnc(Cc3cccs3)s2)cc1OC | inconclusive: 1.64 µM [cytotoxic, full curve] | –
64 | CN(C)c1cc(Cl)c2nonc2c1N | inconclusive: 10.3 µM [rising, partial curve] | –
65 | CCc1nnc(NC(=O)c2cccc(C(=O)Nc3nnc(CC)s3)n2)s1 | inconclusive: 3.26 µM [cytotoxic, full curve] | –
66 | C=CCn1c(SCC(=O)/C(C#N)=C(\C)N)nc2sc(C)c(C)c2c1=O | inconclusive: 18.4 µM [cytotoxic, partial curve, poor fit] | –
67 | CC(C)n1nccc1N(Cc1ccc(C#N)cc1)S(=O)(=O)c1ccccc1 | inconclusive: 23.1 µM [cytotoxic, partial curve] | –
68 | CC1CCN(c2c(NCc3ccc(C(=O)NCC4COc5ccccc5O4)cc3)c(=O)c2=O)CC1 (centres undefined) | inconclusive: 11.6 µM [rising, partial curve, poor fit] | –
69 | CCN(CC)S(=O)(=O)c1ccc(C(=O)Nc2ncn(Cc3ccccc3)n2)cc1 | inconclusive: 18.4 µM [cytotoxic, single point] | –

An excerpt of these results, with tabs.
Row	SMILES	Potency	activity change, negative = cytotoxicity
51	CCN1C/C(=C\c2cccc([N+](=O)[O-])c2)C(=O)/C(=C/c2cccc([N+](=O)[O-])c2)C1	inconclusive: 2.06 µM [cytotoxic, partial curve, poor fit]	–
57	Cc1cccc(N2CCN(C(=O)n3ccnc3)CC2)c1C	inconclusive: 29.1 µM [cytotoxic, single point]	–
